Measurements reported in PubChem BioAssay AID686938 (Drosophila RNAi Screening Center, 2013).
Purpose: 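Fly genes required for calcium entry once internal stores are emptied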 (primary screen). Cells: Drosophila S2R+ cells. Reagents: long dsRNA against Drosophila genes, about 0.25 µg dsRNA per well, roughly 10,000 cells. Time to read-out: 5 days of knock-down before the calcium assay. Challenge: thapsigargin (SERCA pump blocker) to empty calcium stores; entry signal taken 4 min after adding it. Measurement: 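Duplicate raw fluo-4 intensities per well from a plate reader, at rest and four minutes after thapsigargin emptied calcium stores; entry-to-rest ratio filled for only some wells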. Direction: calcium entry signal: higher = stronger calcium signal after store depletion; resting calcium signal: higher = higher resting calcium signal. Units: calcium entry signal in fluorescence units; resting calcium signal in fluorescence units. Call rule: 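Called when the plate z-score of the entry-to-rest ratio, mean of duplicates, falls below −3; wells with low overall dye signal (Fmax z below −2) or more than five off-targets excluded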. Calls: active = strongly reduced calcium entry; inactive = no strong reduction.
The screen tested about 23,000 reagents; shown is a random part of those with a known target gene and a result. Of all reagents, 75 (0.33%) are marked active. 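Raw plate signals without normalisation; calls rest on plate z-scores that were not deposited; ratio present for only 364 wells.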 Reagents against one gene are numbered here. Names joined by + are all predicted targets of the reagent. Reagent sequences are not shown. The record does not give: the dose of the treatment.

Knock-down of dgt4 (dim gamma-tubulin 4) resulted in: calcium entry signal, replicate 1 = 2.85e7; calcium entry signal, replicate 2 = 3.99e7; resting calcium signal, replicate 1 = 1.50e7; resting calcium signal, replicate 2 = 2.03e7; inactive.
Depletion of CG14933 + CG42486 came out at: calcium entry signal, replicate 1 = 3.51e7; calcium entry signal, replicate 2 = 4.47e7; resting calcium signal, replicate 1 = 1.78e7; resting calcium signal, replicate 2 = 1.91e7; inactive.
Against CG9759, the entry reads calcium entry signal, replicate 1 = 3.21e7; calcium entry signal, replicate 2 = 4.22e7; resting calcium signal, replicate 1 = 1.52e7; resting calcium signal, replicate 2 = 1.79e7; inactive.
With knock-down of CG4669, the record shows calcium entry signal, replicate 1 = 5.09e7; calcium entry signal, replicate 2 = 5.13e7; resting calcium signal, replicate 1 = 3.10e7; resting calcium signal, replicate 2 = 1.95e7; inactive.
For AdamTS-B (ADAM metallopeptidase with thrombospondin type 1 motif B) #1, the values are calcium entry signal, replicate 1 = 2.80e7; calcium entry signal, replicate 2 = 3.21e7; resting calcium signal, replicate 1 = 1.29e7; resting calcium signal, replicate 2 = 1.40e7; inactive.
Against AdamTS-B (ADAM metallopeptidase with thrombospondin type 1 motif B) #2, the values are calcium entry signal, replicate 1 = 3.37e7; calcium entry signal, replicate 2 = 3.71e7; resting calcium signal, replicate 1 = 1.59e7; resting calcium signal, replicate 2 = 1.70e7; inactive.
Against blw (bellwether) the deposit lists calcium entry signal, replicate 1 = 3.56e7; calcium entry signal, replicate 2 = 4.48e7; resting calcium signal, replicate 1 = 2.00e7; resting calcium signal, replicate 2 = 2.19e7; inactive.
Silencing of ebd1 (earthbound 1) resulted in: calcium entry signal, replicate 1 = 4.22e7; calcium entry signal, replicate 2 = 3.88e7; resting calcium signal, replicate 1 = 2.13e7; resting calcium signal, replicate 2 = 1.98e7; inactive.
CG33272 scored calcium entry signal, replicate 1 = 3.89e7; calcium entry signal, replicate 2 = 3.20e7; resting calcium signal, replicate 1 = 2.02e7; resting calcium signal, replicate 2 = 1.72e7; inactive.
With knock-down of Hou (Houki) #1 the results were calcium entry signal, replicate 1 = 3.87e7; calcium entry signal, replicate 2 = 3.70e7; resting calcium signal, replicate 1 = 1.66e7; resting calcium signal, replicate 2 = 1.59e7; inactive.
After knock-down of Hou (Houki) #2, the screen gave calcium entry signal, replicate 1 = 3.21e7; calcium entry signal, replicate 2 = 5.00e7; resting calcium signal, replicate 1 = 1.56e7; resting calcium signal, replicate 2 = 2.45e7; inactive.
Knock-down of CG15533 came out at: calcium entry signal, replicate 1 = 3.05e7; calcium entry signal, replicate 2 = 4.66e7; resting calcium signal, replicate 1 = 1.65e7; resting calcium signal, replicate 2 = 1.96e7; inactive.
Knock-down of CG32214 gave: calcium entry signal, replicate 1 = 3.82e7; calcium entry signal, replicate 2 = 4.01e7; resting calcium signal, replicate 1 = 1.94e7; resting calcium signal, replicate 2 = 1.78e7; inactive.
Syx7 (Syntaxin 7) scored calcium entry signal, replicate 1 = 2.56e7; calcium entry signal, replicate 2 = 4.57e7; resting calcium signal, replicate 1 = 1.44e7; resting calcium signal, replicate 2 = 3.02e7; inactive.

Just “resting calcium signal, replicate 1”, for 2 of the entries above:
blw (bellwether): 2.00e7
ebd1 (earthbound 1): 2.13e7
